From publication doi:10.1101/2022.11.07.515412
No constants are given. Whether binding was seen depends on the method and setting. Some results given as binding are weak or reduced against the parent protein; the word gives no strength. Values belong to the molecule of their own block, whether it stands above or below them.

Experiments:
[1] = target: cysteine-clamped full-length vinculin (HV-CC) (human) (UniProt P18206); experiment: native gel or EMSA
[2] = target: T1, full-length human vinculin (HV) (human), P18206; experiment: native gel or EMSA; conditions: remark: other sources report otherwise
T1 chain: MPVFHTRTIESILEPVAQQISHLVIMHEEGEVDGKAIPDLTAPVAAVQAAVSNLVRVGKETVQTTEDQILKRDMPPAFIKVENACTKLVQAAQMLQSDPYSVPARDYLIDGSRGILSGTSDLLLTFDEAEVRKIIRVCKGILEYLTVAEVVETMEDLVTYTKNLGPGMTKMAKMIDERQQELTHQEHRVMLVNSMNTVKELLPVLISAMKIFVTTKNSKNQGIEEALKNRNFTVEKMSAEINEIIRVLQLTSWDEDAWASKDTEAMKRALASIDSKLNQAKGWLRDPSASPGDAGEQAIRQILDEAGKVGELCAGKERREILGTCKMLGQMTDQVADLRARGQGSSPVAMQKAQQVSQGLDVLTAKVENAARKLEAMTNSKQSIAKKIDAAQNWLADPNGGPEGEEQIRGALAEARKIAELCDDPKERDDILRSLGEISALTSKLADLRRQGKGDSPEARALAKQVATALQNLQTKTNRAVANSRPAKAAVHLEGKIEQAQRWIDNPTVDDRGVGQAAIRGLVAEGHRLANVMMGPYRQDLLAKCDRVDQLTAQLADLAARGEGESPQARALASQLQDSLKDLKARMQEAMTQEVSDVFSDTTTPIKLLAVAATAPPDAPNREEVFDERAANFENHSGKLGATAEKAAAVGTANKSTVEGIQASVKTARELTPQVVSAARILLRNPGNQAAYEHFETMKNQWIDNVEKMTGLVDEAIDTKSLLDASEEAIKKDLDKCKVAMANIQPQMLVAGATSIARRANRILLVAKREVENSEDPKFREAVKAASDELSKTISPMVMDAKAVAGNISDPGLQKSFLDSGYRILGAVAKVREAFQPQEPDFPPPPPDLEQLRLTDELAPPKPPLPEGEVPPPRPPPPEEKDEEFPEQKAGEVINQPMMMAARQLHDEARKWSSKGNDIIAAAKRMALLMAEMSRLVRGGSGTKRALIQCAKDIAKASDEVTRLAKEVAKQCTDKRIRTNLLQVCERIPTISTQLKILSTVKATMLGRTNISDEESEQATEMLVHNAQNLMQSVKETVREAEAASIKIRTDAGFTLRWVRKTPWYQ

binding [1]: no binding
Molecule: cysteine-clamped full-length vinculin (HV-CC) (from UniProt P18206-2 1-1066)

binding [2]: binds
B1: full-length human vinculin (HV), P18206-2 1-1066 (protein)
chain: T1 chain
